The text below walks through data of US20230287094A1 (LUDWIG INSTITUTE FOR CANCER RESEARCH, published 2023).

In experiment [1] the target is T1, human TGF-β3 (human, UniProt P10600 301-412).
T1 sequence: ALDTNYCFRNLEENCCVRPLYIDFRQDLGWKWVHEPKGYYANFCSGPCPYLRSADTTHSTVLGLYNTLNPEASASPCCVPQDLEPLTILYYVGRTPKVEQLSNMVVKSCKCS
Put plainly: ELISA on plates coated with 500 ng/ml human TGF-β isoforms, antibody at 3 µg/ml (FIG. 4A). (In general: In an ELISA, binding on a coated surface is turned into a signal by an enzyme label.)

Experiment [2] concerns the target T1, human TGF-β3. Put plainly: dose-response ELISA on human TGF-β isoforms (FIG. 4B).
Another experiment deals with T2, mouse TGF-β3 (mouse) (UniProt P17125).
T2 sequence: T1 sequence
Put plainly: ELISA on recombinant TGF-β3 (FIG. 3).

Experiment [3] addresses T1, human TGF-β3. Put plainly: ELISA on recombinant TGF-β3 (FIG. 3).

Substitutions are numbered along the chain they refer to. These are yes or no findings as the source states them, for the method shown. Some entries that bind do so weakly or less than the wild type.

B1: MTGF-β3-1901/16 (antibody, IgG1, V domains shown)
VH: QVLLQQSGPELVKPGASVKISCKASGYAFSSSWIHWVKQRPGKGLEWIGRIYPGDGDTNYTGKFKGKATLTADKSSSTAYMQLSSLTSEDSAVYFCARRMITTQAAMDYWGQGTSVTVSS
VL: SFVMTQTPKFLLVSAGDRVTITCKASQSVINAVAWYQQKPGQSPKLLIYYASNRYTGVPDRFTGNGYGTDFTFTISTVQAEDLAVYFCQQDYSSPYTFGGGTKLEIK
In the case of B1, the binding entry in the experiment with human TGF-β3 [1], with human TGF-β3 [2], with mouse TGF-β3 (mouse) and with human TGF-β3 [3] was “binds” throughout.

B2: MTGF-β3-1679/2 (antibody, IgG2a, V domains shown)
VH: B1 VH
VL: B1 VL
Turning to B2, in the experiment with mouse TGF-β3 (mouse), the binding entry is listed as “binds”.

B3: MTGF-β3-9/8 (antibody, IgG2a, V domains shown)
VH: B1 VH with I34M, Y52F, N59I, T61N, K63N
VL: B1 VL with F2I, A32D
Take B3: in the experiment with mouse TGF-β3 (mouse), the binding entry is recorded as “binds”.

B4: MTGF-β3-1203/11 (antibody, IgG2b, V domains shown)
VH: QVQLKQSGAELVKPGASVKISCKASGYTFTDYYINWVKQRPGQGLEWIGKIGPGTGRTYYNEKFKGKATLTADKSSSTAYMQLSSLTSEDSAVYFCAIYYGWGYAMDYWGQGTSVTVSS
VL: DIVMTQSPSSLSVSAGEKVTMSCKSSQSLLNSGNQKNYLAWYQQKSGQPPKLLIYGASTRESGVPDRFTGSGSGTDFTLTISSVQAEDLAVYYCQNDHGFPLTFGAGTKLELK
Turning to B4, the binding entry with mouse TGF-β3 (mouse) is listed as “binds”.

B5: MTGF-β3-1719/13 (antibody, IgG2a, V domains shown)
VH: QVQLQQPGAELVKPGASVKMSCKASGYIFTSYWITWVKQRPGQGLEWIGDIFPGTGSTNYNEKFKTKASLTVDTSSSTANMQLSSLTSEDSAVYSCARKLGPNYAVDYWGQGTSVTVSS
VL: DVVMTQTPLSLPVSLGDQASISCRSSQSLIHSHGNTYLHWYLQKPGQSPKLLIYKLSNRFSGVPDRFSGSGSGTDFTLKISRVEAEDLGVYFCSQSTHVPFTFGSGTKLEIK
notes: also called TGF-ß3-17
For B5, in the experiment with mouse TGF-β3 (mouse), the binding entry is given as “binds”.
